Experimental findings from paper PMC10650796 are described below.

Protein sequences, listed by entry. Tags and fused reporters are not part of them.
UniProt P32121: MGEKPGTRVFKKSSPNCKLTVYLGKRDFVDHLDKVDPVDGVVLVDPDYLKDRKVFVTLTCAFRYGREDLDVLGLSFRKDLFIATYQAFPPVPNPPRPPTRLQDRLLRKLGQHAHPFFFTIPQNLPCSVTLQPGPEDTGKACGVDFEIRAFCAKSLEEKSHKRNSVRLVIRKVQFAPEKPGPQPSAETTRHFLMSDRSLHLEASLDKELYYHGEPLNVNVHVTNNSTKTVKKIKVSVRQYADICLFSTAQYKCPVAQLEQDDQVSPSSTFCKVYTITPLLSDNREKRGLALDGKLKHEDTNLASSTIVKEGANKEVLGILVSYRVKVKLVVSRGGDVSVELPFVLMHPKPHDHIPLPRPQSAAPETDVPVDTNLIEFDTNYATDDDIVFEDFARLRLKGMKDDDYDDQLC

Results are given in words; binding and its absence hold for the method and conditions named. Binding seen in cells or lysates may run through a third protein. Some results given as binding are weak or reduced against the parent protein; the word gives no strength. Sequences can lack the tags named with a protein.

In the assay the target is T1, hFSHR C-terminally fused with donor Rluc8 (human) (UniProt P23945).
T1 sequence: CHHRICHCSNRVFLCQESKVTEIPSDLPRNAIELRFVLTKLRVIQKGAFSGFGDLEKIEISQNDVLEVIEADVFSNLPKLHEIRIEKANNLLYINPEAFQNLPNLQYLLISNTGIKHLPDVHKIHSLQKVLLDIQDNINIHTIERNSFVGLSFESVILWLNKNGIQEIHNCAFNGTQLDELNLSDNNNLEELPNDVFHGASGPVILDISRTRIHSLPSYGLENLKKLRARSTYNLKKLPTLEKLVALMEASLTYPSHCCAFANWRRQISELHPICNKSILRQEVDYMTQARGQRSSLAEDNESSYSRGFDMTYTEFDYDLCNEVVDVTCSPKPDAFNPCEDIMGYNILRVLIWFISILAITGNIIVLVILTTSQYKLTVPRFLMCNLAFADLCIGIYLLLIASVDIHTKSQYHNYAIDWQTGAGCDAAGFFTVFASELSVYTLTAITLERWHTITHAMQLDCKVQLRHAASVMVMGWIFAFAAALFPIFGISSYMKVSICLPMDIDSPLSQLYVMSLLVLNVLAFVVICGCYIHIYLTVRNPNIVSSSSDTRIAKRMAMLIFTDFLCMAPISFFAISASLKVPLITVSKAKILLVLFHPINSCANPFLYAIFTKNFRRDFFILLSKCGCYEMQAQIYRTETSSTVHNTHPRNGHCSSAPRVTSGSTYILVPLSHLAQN
Nature of the assay: FRET or BRET; living HEK293 cells co-transfected with FSHR-Rluc8 and NES-Venus-mGs or YPET-β-arrestin-2; stimulated with FSH (10^-9.5 to 10^-6.5 M) with or without 1 µM PRC1-Hinge-Fc or NR control-Hinge-Fc; 5 µM coelenterazine-H; read every 60 s for about 60 min. A general note: Bioluminescence resonance energy transfer reports proximity on the nanometre scale.

As for “β-arrestin-2 N-terminally fused to a YPET BRET acceptor (from UniProt P32121 1-409)”, the binding result was “binds”.
